Measurements reported in PubChem BioAssay AID248 (DTP/NCI, 2004).
The list shows only some results of the screen, not a fair sample: it gathers tests that were run many times, whatever their T/C, doses with no T/C, and many T/C values between a quarter and a half above the control. Other doses and runs of a compound stand elsewhere. T/C is the treated group as % of the vehicle group. Some doses have a count of surviving animals in place of a T/C: the source holds a T/C of zero for them, seemingly a mark for toxic or unscored doses. Some survivor counts are full or nearly so, which does not show that the dose was tolerated: survival well below the control is almost never listed, so the zero probably covers shortened survival too. Survivors were counted at the toxicity check, usually on the fifth day, unless a day is given; later deaths do not show. Schedules are NCI's codes, taken here to give the interval after Q, in days (D) or hours (H), and the number of doses after X. Some schedules carry Z or #; the key to these is not given. Where survival is the endpoint, the PubChem record calls one and a half times the control and up active, and a quarter to a half above the control has no call in these data; cut-offs in other NCI protocols can differ. Some entries were tested several times; the values are given in rising order. Some T/C values carry the count of animals alive at the toxicity check (mostly the fifth day); where none is given, no animal had died by that day.

System: L1210 leukemia ip in BDF1 mice, survival T/C
Assay: NCI In Vivo Anticancer Drug Screen. Data for tumor model L1210 Leukemia (intraperitoneal) in B6D2F1 (BDF1) mice
Conditions: T/C endpoint: mean survival time, higher T/C = longer survival
[1] = dose: 200.0 mg/kg/injection, schedule: Q01DX009 (ip), vehicle: Klucel (hydroxypropylcellulose) (HPC)
[2] = dose: 400.0 mg/kg/injection, schedule: Q01DX009 (ip), vehicle: Klucel (hydroxypropylcellulose) (HPC)
[3] = dose: 100.0 mg/kg/injection, schedule: Q01DX001 (ip), vehicle: saline
[4] = dose: 200.0 mg/kg/injection, schedule: Q01DX001 (ip), vehicle: saline
[5] = dose: 400.0 mg/kg/injection, schedule: Q01DX001 (ip), vehicle: saline
[6] = dose: 50.0 mg/kg/injection, schedule: Q01DX009 (ip), vehicle: Klucel (hydroxypropylcellulose) (HPC)
[7] = dose: 100.0 mg/kg/injection, schedule: Q01DX009 (ip), vehicle: Klucel (hydroxypropylcellulose) (HPC)
[8] = dose: 150.0 mg/kg/injection, schedule: Q04DX003 (ip), vehicle: saline
[9] = dose: 200.0 mg/kg/injection, schedule: Q04DX003 (ip), vehicle: Klucel (hydroxypropylcellulose) (HPC)
[10] = dose: 400.0 mg/kg/injection, schedule: Q04DX003 (ip), vehicle: Klucel (hydroxypropylcellulose) (HPC)
[11] = dose: 100.0 mg/kg/injection, schedule: Q04DX003 (ip), vehicle: saline with Tween-80
[12] = dose: 200.0 mg/kg/injection, schedule: Q04DX003 (ip), vehicle: saline with Tween-80
[13] = dose: 400.0 mg/kg/injection, schedule: Q04DX003 (ip), vehicle: saline with Tween-80
[14] = dose: 200.0 mg/kg/injection, schedule: Q01DX009 (ip), vehicle: saline

With `O=C(Nc1ccc(C(Cl)(Cl)Cl)cc1)Nc1cc(Cl)ccc1Cl` the survivor count [1] was 3 of 6 and the survivor count [2] was 0 of 6.

`CC1(C)N=C(N)N=C(N)N1c1cccc(C(=O)O)c1` was tested, and the survivor count [3] was 1 of 6, the survivor count [4] was 2 of 6 and the survivor count [5] was 0 of 6.

With `CC(Oc1nc2c(c(=O)n(C)c(=O)n2C)n1C)C1CCCCC1` (configuration not stated) the survivor count (dose: 400.0 mg/kg/injection, schedule: Q01DX001 (ip), vehicle: other) was 1 of 4.

For `Cc1c2cnccc2c(C)c2c1c1ccccc1n2CC1CO1` (configuration not stated), the T/C (dose: 9.37 mg/kg/injection, schedule: Q01DX009 (ip), vehicle: Klucel (hydroxypropylcellulose) (HPC)) was 126 % of control, the T/C (dose: 12.5 mg/kg/injection, schedule: Q01DX009 (ip), vehicle: Klucel (hydroxypropylcellulose) (HPC)) was 130 % of control and the T/C (dose: 12.5 mg/kg/injection, schedule: Q04DX003 (ip), vehicle: saline) was 128 % of control. The T/C (dose: 25.0 mg/kg/injection, schedule: Q01DX009 (ip), vehicle: saline with Tween-80) was 128 % of control, the survivor count [6] was 6 of 6 and the T/C (dose: 50.0 mg/kg/injection, schedule: Q01DX009 (ip), vehicle: saline with Tween-80) was 147 % of control. For the same molecule, the T/C (dose: 50.0 mg/kg/injection, schedule: Q04DX003 (ip), vehicle: saline) was 126 % of control, the survivor count [7] was 5 of 6 and the T/C (dose: 100.0 mg/kg/injection, schedule: Q04DX003 (ip), vehicle: saline) was 138 % of control. For the same molecule, the survivor count [8] was 6 of 6, the survivor count [1] was 5 of 6 and the survivor count [2] was 3 of 6.

In the case of `CNCCC(CNC1=NCCN1)(c1cccc2ccccc12)C(C)C` (configuration not stated), the survivor count [9] is reported as 0 of 6 and the survivor count [10] is reported as 0 of 6.

With `CC(C)(O)/C=C/C(=O)[C@](C)(O)[C@H]1[C@H](O)C[C@@]2(C)[C@@H]3CC=C4[C@@H](C[C@H](O)C(=O)C4(C)C)[C@]3(C)C(=O)C[C@]12C` the survivor count (dose: 2.0 mg/kg/injection, schedule: Q01DX001 (sc), vehicle: steroid suspending solution) was 0 of 4, the survivor count (dose: 4.0 mg/kg/injection, schedule: Q01DX001 (sc), vehicle: steroid suspending solution) was 0 of 4 and the survivor count (dose: 8.0 mg/kg/injection, schedule: Q01DX001 (sc), vehicle: steroid suspending solution) was 0 of 4.

In the case of `CCOC(=O)c1ccc(NC(=O)Oc2ccc3ccccc3c2)cc1`, the survivor count (dose: 100.0 mg/kg/injection, schedule: Q01DX001 (ip), vehicle: saline with Tween-80) is reported as 6 of 6, the survivor count [11] is reported as 6 of 6 and the survivor count [12] is reported as 6 of 6. For the same molecule, the survivor count [13] was 6 of 6.

For `CCOC(=O)C(C)Cl` (configuration not stated), the survivor count [2] was 2 of 6.

In the case of `CC1CN1P(=O)(OCCC#N)N1CC1C` (configuration not stated), the T/C (dose: 100.0 mg/kg/injection, schedule: Q04DX003 (ip), vehicle: acetone) is reported as 129 % of control, the T/C [14] is reported as 141 % of control and the T/C (dose: 300.0 mg/kg/injection, schedule: Q04DX003 (ip), vehicle: acetone) is reported as 146 % of control. For the same molecule, the survivor count (dose: 400.0 mg/kg/injection, schedule: Q04DX003 (ip), vehicle: acetone) was 6 of 6.

`O=CO.[Cd]` was tested, and the survivor count (dose: 10.0 mg/kg/injection, schedule: Q01DX001 (ip), vehicle: saline) was 3 of 6, the survivor count (dose: 20.0 mg/kg/injection, schedule: Q01DX001 (ip), vehicle: saline) was 0 of 6 and the survivor count (dose: 40.0 mg/kg/injection, schedule: Q01DX001 (ip), vehicle: saline) was 0 of 6. For the same molecule, the survivor count (dose: 80.0 mg/kg/injection, schedule: Q01DX001 (ip), vehicle: saline) was 0 of 6, the survivor count [3] was 0 of 6 and the survivor count [4] was 0 of 6. For the same molecule, the survivor count [5] was 0 of 6.

In the case of `C[N+](C)(C)CCC1CCCCC1`, the survivor count (dose: 150.0 mg/kg/injection, schedule: Q01DX001 (ip), vehicle: saline) is reported as 0 of 6 and the survivor count (dose: 300.0 mg/kg/injection, schedule: Q01DX001 (ip), vehicle: saline) is reported as 0 of 6.

With `CCCC(C)c1cc([N+](=O)[O-])cc([N+](=O)[O-])c1O` (configuration not stated) the survivor count (dose: 100.0 mg/kg/injection, schedule: Q01DX009 (ip), vehicle: saline with Tween-80) was 0 of 6, the survivor count (dose: 200.0 mg/kg/injection, schedule: Q01DX009 (ip), vehicle: saline with Tween-80) was 0 of 6 and the survivor count (dose: 400.0 mg/kg/injection, schedule: Q01DX009 (ip), vehicle: saline with Tween-80) was 0 of 6.

`CC(CN(C)C)C(O)(c1ccccc1)c1ccccc1` (configuration not stated) was tested, and the survivor count [5] was 1 of 4.

In the case of `CC[N+](C)(CC)CCCNC(=O)C(c1ccccc1)c1ccccc1`, the survivor count [12] is reported as 1 of 6 and the survivor count [13] is reported as 0 of 6.

`CC(C)(C)CC(C)(C)NCc1ccccc1` was tested, and the survivor count [11] was 6 of 6, the survivor count [12] was 0 of 6 and the survivor count [13] was 0 of 6.

For `CN(N=O)C(=O)Nc1ccc(C(=O)O)cc1`, the T/C (dose: 60.0 mg/kg/injection, schedule: Q01DX001 (ip), vehicle: carboxymethylcellulose (CMC)) was 128 % of control, the T/C (dose: 120.0 mg/kg/injection, schedule: Q01DX001 (ip), vehicle: carboxymethylcellulose (CMC)) was 140 % of control and the survivor count (dose: 150.0 mg/kg/injection, schedule: Q01DX Z (ip), vehicle: carboxymethylcellulose (CMC)) was 0 of 6. The T/C (dose: 240.0 mg/kg/injection, schedule: Q01DX001 (ip), vehicle: carboxymethylcellulose (CMC)) was 129 % of control, the survivor count (dose: 480.0 mg/kg/injection, schedule: Q01DX001 (ip), vehicle: carboxymethylcellulose (CMC)) was 1 of 10 and the survivor count (dose: 960.0 mg/kg/injection, schedule: Q01DX001 (ip), vehicle: carboxymethylcellulose (CMC)) was 0 of 10.

`CC1(C)N=C(N)N=C(N)N1c1ccc(CCCCc2ccc(S(=O)(=O)F)cc2Cl)c(Cl)c1` was tested, and the T/C (dose: 10.89 mg/kg/injection, schedule: Q04DX003 (ip), vehicle: saline) was 130 % of control, the T/C (dose: 12.5 mg/kg/injection, schedule: Q01DX009 (ip), vehicle: saline) was 131 % of control and the T/C (dose: 15.0 mg/kg/injection, schedule: Q01DX009 (ip), vehicle: saline with Tween-80) was 132 % of control. The T/C (dose: 25.0 mg/kg/injection, schedule: Q01DX009 (ip), vehicle: saline) was 125 % of control, the T/C (dose: 36.0 mg/kg/injection, schedule: Q01DX009 (ip), vehicle: saline with Tween-80) was 125 % of control and the T/C (dose: 37.5 mg/kg/injection, schedule: Q01DX009 (ip), vehicle: saline with Tween-80) was 135 % of control. For the same molecule, the T/C (dose: 37.5 mg/kg/injection, schedule: Q04DX003 (ip), vehicle: saline with Tween-80) was 129 % of control, the T/C [6] was 132 and 135 % of control and the T/C (dose: 50.0 mg/kg/injection, schedule: Q01DX009 (ip), vehicle: saline) was 127 % of control. The T/C (dose: 75.0 mg/kg/injection, schedule: Q04DX003 (ip), vehicle: saline with Tween-80) was 133 % of control, the T/C (dose: 75.0 mg/kg/injection, schedule: Q04DX003 (ip), vehicle: saline) was 135 % of control and the T/C [7] was 128 and 132 % of control. For the same molecule, the T/C (dose: 133.0 mg/kg/injection, schedule: Q04DX003 (ip), vehicle: Klucel (hydroxypropylcellulose) (HPC)) was 125 % of control, the survivor count (dose: 150.0 mg/kg/injection, schedule: Q01DX009 (ip), vehicle: saline with Tween-80) was 5 of 6 and the T/C [8] was 147 % of control. The survivor count [14] was 5 of 6, the T/C [9] was 131 and 132 % of control and the survivor count (dose: 300.0 mg/kg/injection, schedule: Q01DX009 (ip), vehicle: saline with Tween-80) was 0 of 6. The survivor count (dose: 300.0 mg/kg/injection, schedule: Q04DX003 (ip), vehicle: saline with Tween-80) was 6 of 6 and the T/C (dose: 300.0 mg/kg/injection, schedule: Q04DX003 (ip), vehicle: saline) was 125 % of control [5 of 6 alive].

For `COC(=O)N1C2CCC(C2=C(C)C)N1C(=O)OC`, the survivor count [10] was 6 of 6.
